Results are given in words; binding and its absence hold for the method and conditions named. In cells and extracts the contact can be indirect. Binding calls can cover weak binding; strength is not graded here.

Chains of the proteins cited; added tags and fusions are not shown. Lines headed by an entry give the natural chain unless they say otherwise; changes in a name come on top.
UniProt B7UMC1: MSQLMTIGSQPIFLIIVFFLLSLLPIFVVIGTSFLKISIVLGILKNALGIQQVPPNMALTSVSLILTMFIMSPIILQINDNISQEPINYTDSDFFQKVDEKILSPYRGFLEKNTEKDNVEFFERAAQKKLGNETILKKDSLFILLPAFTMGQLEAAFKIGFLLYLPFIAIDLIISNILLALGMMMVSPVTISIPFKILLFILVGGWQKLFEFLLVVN
UniProt B7UMC0: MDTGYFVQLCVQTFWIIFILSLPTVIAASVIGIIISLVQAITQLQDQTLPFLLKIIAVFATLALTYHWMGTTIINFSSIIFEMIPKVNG

The assay addresses EscR-3HA (from the pEscRST plasmids, in E. coli BL21) (enteropathogenic E. coli (EPEC) O127:H6 strain E2348/69) (UniProt B7UMC1). Kind of assay: pull-down.

Consider “EscS-V5 (from pEscR-3HA/EscS-V5/EscT-His, in E. coli BL21) (from UniProt B7UMC0)”, for which the binding entry is “binds”.

For the origin of these results see paper PMC8726614.
